Laboratory results taken from patent publication US20080274884A1, “Novel use of (N'-methyl)benzoylurea compound” (priority 2007, published 2008).
Some entries share one result that the patent states for a list of compounds.

Tested on: Plutella xylostella
Assay: Test Example 1: feeding damage of cabbage seedlings raised from pelletized treated seeds by Plutella xylostella larvae
Type: in vivo
Conditions: pelletized cabbage seeds (Production Example 2); seedlings raised 28 days after sowing; 10 second-stage larvae; 25° C. for 7 days; versus un-treated group

| SMILES | damage-inhibiting effect [%] |
| --- | --- |
| CN(C(=O)NC(=O)c1c(F)cccc1F)c1ccc(OC(F)(F)C(F)F)cc1F [present compound (1), 3-(2,6-difluorobenzoyl)-1-[2-fluoro-4-(1,1,2,2-tetrafluoroethoxy)phenyl]-1-methylurea] | ≥ 90 |
| CN(C(=O)c1c(F)cccc1F)C(=O)N(C)c1ccc(OC(F)(F)C(F)F)cc1F [present compound (6), 3-(2,6-difluorobenzoyl)-1-[2-fluoro-4-(1,1,2,2-tetrafluoroethoxy)phenyl)-1,3-dimethylurea] | ≥ 90 |
